In patent US6972178:
Results are given in words; binding and its absence hold for the method and conditions named. Some results given as binding are weak or reduced against the parent protein; the word gives no strength. Sequences can lack the tags named with a protein.

Amino acid sequences for entries named in this document (tags omitted). A change or cut given only in a name is not applied to a line headed by its entry.
UniProt P04386: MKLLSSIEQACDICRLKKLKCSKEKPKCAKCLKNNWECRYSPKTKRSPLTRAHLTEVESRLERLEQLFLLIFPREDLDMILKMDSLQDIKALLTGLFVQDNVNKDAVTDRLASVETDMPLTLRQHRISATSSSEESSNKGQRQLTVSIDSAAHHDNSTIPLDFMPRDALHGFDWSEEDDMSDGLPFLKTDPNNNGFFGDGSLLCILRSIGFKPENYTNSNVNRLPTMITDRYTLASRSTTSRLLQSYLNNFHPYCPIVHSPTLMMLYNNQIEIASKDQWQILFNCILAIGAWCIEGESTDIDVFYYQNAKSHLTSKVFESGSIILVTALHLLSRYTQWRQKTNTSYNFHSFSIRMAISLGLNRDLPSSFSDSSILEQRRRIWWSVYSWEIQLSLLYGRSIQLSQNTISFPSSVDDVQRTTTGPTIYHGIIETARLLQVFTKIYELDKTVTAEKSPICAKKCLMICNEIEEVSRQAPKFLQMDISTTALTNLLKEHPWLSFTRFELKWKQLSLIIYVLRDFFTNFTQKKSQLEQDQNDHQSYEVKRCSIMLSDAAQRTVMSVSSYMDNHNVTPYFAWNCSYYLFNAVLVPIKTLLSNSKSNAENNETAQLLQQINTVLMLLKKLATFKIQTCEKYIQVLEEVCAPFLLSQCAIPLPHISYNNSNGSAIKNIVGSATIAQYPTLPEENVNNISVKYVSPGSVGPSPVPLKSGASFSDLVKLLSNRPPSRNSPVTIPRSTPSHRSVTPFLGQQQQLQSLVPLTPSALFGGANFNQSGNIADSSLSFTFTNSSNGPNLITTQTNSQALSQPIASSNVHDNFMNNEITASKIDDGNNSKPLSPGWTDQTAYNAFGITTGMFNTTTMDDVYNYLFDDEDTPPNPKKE
UniProt Q04752: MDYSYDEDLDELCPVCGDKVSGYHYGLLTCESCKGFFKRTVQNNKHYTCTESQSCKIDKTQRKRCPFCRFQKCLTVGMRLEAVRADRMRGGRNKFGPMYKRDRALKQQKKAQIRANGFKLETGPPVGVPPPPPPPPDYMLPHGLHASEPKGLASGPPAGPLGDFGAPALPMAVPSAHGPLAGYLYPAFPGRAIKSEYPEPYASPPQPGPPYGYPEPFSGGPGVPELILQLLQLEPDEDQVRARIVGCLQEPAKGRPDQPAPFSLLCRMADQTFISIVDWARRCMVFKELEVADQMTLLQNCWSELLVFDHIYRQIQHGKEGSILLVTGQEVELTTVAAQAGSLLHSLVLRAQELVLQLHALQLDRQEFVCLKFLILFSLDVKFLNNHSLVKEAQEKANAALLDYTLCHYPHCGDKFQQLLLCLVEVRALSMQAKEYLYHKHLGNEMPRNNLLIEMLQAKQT

Columns and labels:
[1] = biological target: T1, Gal4DBD-SF1 fusion protein (bovine steroidogenic factor 1, pGBT9-SF1) (bovine) (UniProt P04386+Q04752); assay: yeast two-hybrid, β-galactosidase activity
[2] = biological target: Gal4DBD-ERRα1 fusion protein (estrogen related receptor α-1, pGBT9-ERRα-1) (UniProt P04386); assay: yeast two-hybrid, β-galactosidase activity
[3] = biological target: T1, Gal4DBD-SF1 fusion protein (bovine steroidogenic factor 1, pGBT9-SF1) (bovine); assay: yeast two-hybrid, β-galactosidase activity (FIG. 5B)
[4] = biological target: Gal4DBD fusion of ERα ligand-binding domain, amino acids 274 to 595 (pGBT9-ER274-595) (UniProt P04386); assay: yeast two-hybrid, β-galactosidase activity, with ligand
[5] = biological target: Wild type bovine SF1 (steroidogenic factor 1), from pSG5 vector (bovine) (UniProt Q04752); assay: GST pull-down of in vitro translated 35S-SF1, SDS-PAGE and autoradiography
[6] = biological target: Wild type bovine SF1 (steroidogenic factor 1), from pSG5 vector (bovine) (UniProt Q04752); assay: GST pull-down of in vitro translated 35S-SF1 (FIGS. 3A-B, lane 4)

Measured: binding

B1: Gal4AD-PNRC278-300 fusion protein (peptide, not shown: large carriers)
chain: NYAGAKFSDPPSPSVLPKPPSHW
binds: [1] | [2] | [3] | [4]

B2: GST-PNRC278-300 (peptide, not shown: a dimerising Fc or GST)
chain: NYAGAKFSDPPSPSVLPKPPSHW
binds: [5] | [6]
